# Assay results published in PubChem BioAssay AID1487 (National Center for Advancing Translational Sciences (NCATS), 2009).
# Where “and” joins values, the source holds several entries; their conditions need not be identical. Identical values can stand only once. This is one part of the list. Further columns of the screen follow, without active or inactive calls. The list favours compounds with an active or inconclusive main result. Potencies come from curve fits of mixed quality, noted in brackets.
# Experiment: qHTS Assay for Modulators of Lamin A Splicing
# Details: HeLa LMNA splicing GFP/RFP minigene ratio, 48 h
# Summary of the method: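 S3 HeLa cells stably expressing lamin A-EGFP splicing minigene plus DsRed2, 600 cells/well, 48 h compound exposure at 37C. Laser-scanning cytometry; analysed as GFP (500-530 nm)/RFP (575-640 nm) total intensity ratio; 0.5% DMSO vehicle.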
# [1] = measured here: GFP splicing reporter channel
# [2] = measured here: RFP viability control channel
Compound,AC50 [1],AC50 [2]
CCOc1ccccc1CC1C(=O)Nc2ccc(Br)cc21 (configuration not stated),"14.1 µM [falling, partial curve, poor fit]","35.5 µM [falling, single point]"
O=C(NCc1ccc(N2CCCC2=O)cc1)c1cccc(Cl)c1,–,"0.112 µM [rising, full curve, poor fit]"
CSc1cccc(NC(=O)C2CCN(C(=O)c3ccccc3C)CC2)c1,"12.6 µM [rising, partial curve]","17.8 µM [rising, partial curve]"
COc1ccc(S(=O)(=O)N(C)C)cc1NCC(=O)Nc1ccc(Br)cc1F,–,"14.1 µM [rising, partial curve]"
COc1cc(/C=C(/C#N)c2ccc(F)cc2)ccc1Oc1ccc([N+](=O)[O-])cn1,"3.55 µM [rising, full curve, poor fit]","7.94 µM [rising, partial curve]"
Cc1ccnc(NC(=O)CCC(=O)N(CC(=O)NC2CCCCC2)CC2CCCO2)c1 (configuration not stated),–,"5.62 µM [falling, single point]"
O=S(=O)(Nc1ccc(N=Nc2ccc(O)c3ccccc23)cc1)c1ccccc1,"35.5 µM [falling, single point]","35.5 µM [falling, single point]"
COc1ccc(NC(=S)c2ccncc2)cc1,"14.1 µM [rising, partial curve]","12.6 µM [rising, partial curve]"
CC(=O)Oc1ccc(OC(C)=O)c(SCCCCCCl)c1,"3.55 µM [falling, full curve, poor fit]","14.1 µM [falling, partial curve]"
CC1Cc2ccccc2N1C(=O)CSc1ccccc1 (configuration not stated),"17.8 µM [rising, single point]",–
O=C(NC(NC(=S)Nc1c(Cl)cccc1Cl)C(Cl)(Cl)Cl)OCc1ccccc1 (configuration not stated),"15.8 µM [falling, single point]",–
CC(c1ccco1)N(C(=O)c1ccccc1NS(=O)(=O)c1cc([N+](=O)[O-])ccc1Cl)c1ccccn1 (configuration not stated),"0.282 µM [falling, full curve, poor fit]","0.158 µM [falling, full curve, poor fit]"
COc1ccc(-c2cc(=O)c3c(O)cc(O)c(-c4cc(-c5cc(=O)c6c(O)cc(O)cc6o5)ccc4OC)c3o2)cc1,"12.6 µM [falling, partial curve]","20 µM [falling, partial curve]"
Cc1ccc(NS(=O)(=O)c2ccc(N3CCN(c4ccc(O)cc4)CC3)c([N+](=O)[O-])c2)c(C)c1,"12.6 µM [rising, partial curve, poor fit]","17.8 µM [rising, partial curve]"
O=C(Nc1cccc(Cl)c1)OCCN1CCN(Cc2ccccc2)CCC1=O,–,"17.8 µM [rising, partial curve]"
Cc1ccc(N(Cc2cccs2)C(=O)c2ccc(Br)o2)cc1,–,"14.1 µM [rising, single point]"
Cc1ccc(O)c(N=Nc2ccccc2)n1,"3.98 µM [falling, full curve]","7.08 µM [falling, partial curve]"
O=C(/C=C/c1ccccc1[N+](=O)[O-])N1CCN(c2ccccc2F)CC1,"2 µM [rising, partial curve]","0.631 µM [rising, full curve]"
Cc1cccc(C(=O)NC2CCCc3ccccc32)c1 (configuration not stated),"35.5 µM [falling, single point]","25.1 µM [falling, single point]"
Cc1nn(Cc2ccccc2)c(C)c1NC(=O)c1cccs1,–,"3.16 µM [falling, single point]"
Cn1c(-c2ccc(F)cc2)cnc1SCC(=O)N1CCCc2ccccc21,–,"31.6 µM [rising, single point]"
Cc1c(O)ccc(-c2[nH]ncc2-c2nc3ccccc3s2)c1O,–,"31.6 µM [rising, single point]"
O=C(NCc1cccnc1)c1cccc(S(=O)(=O)N2CCCCC2)c1,–,"11.2 µM [rising, single point]"
COC(=O)c1ccc2c(=O)n(CCCCCC(=O)N3CCN(c4ccc(OC)cc4)CC3)c(=O)[nH]c2c1,–,"5.62 µM [falling, single point]"
COc1cccc(C2=NOC(C(=O)NCc3ccccc3)C2)c1 (configuration not stated),"3.16 µM [falling, full curve]","4.47 µM [falling, full curve]"
CCC(C)Sc1nc2c(c(=O)[nH]c(=O)n2C)n1CCc1ccccc1 (configuration not stated),–,"35.5 µM [rising, single point]"

Compound,AC50 [1],AC50 [2]
COc1ccc2nc3sc(C(=O)NCCN4CCc5ccccc5C4)cc3cc2c1,–,"35.5 µM [rising, single point]"
Cc1ccc(CC2SC(=Nc3ccccc3)N(c3ccccc3)C2=O)cc1 (configuration not stated),–,"35.5 µM [rising, single point]"
CCOc1ccc(CNC(=O)c2ccc(Sc3ccc(Cl)cc3)c(NC(C)=O)c2)cc1OC,"11.2 µM [falling, partial curve]","14.1 µM [rising, single point] and 12.6 µM [falling, partial curve]"
CC(=O)c1ccc(N2CCN(C(=O)COc3ccc(F)cc3)CC2)c(F)c1,–,"35.5 µM [rising, single point]"
CCC(=O)Oc1ccc2c(C)cc(=O)oc2c1C,–,"17.8 µM [rising, single point]"
Cc1ccc(NC(=O)c2cccs2)cc1S(=O)(=O)N(C)C,"10 µM [rising, partial curve]","12.6 µM [rising, single point]"
C/C=C/C(=O)OCC(=O)Nc1cccc(F)c1,"25.1 µM [falling, partial curve, poor fit]",–
CC(=O)N1CC[n+]2c(-c3ccc(Cl)cc3Cl)csc21,"22.4 µM [rising, single point]",–
Cc1ccc(S(=O)(=O)NC(=O)Nc2ccccc2)cc1,–,"35.5 µM [falling, partial curve]"
Cc1ccc(-c2cc(C(F)(F)F)n3ncc(C(=O)N4CCCCC4c4cccnc4)c3n2)cc1 (configuration not stated),"0.891 µM [rising, partial curve, poor fit]","0.00355 µM [rising, full curve, poor fit]"
CC(=O)c1ccc(N2CCN(S(=O)(=O)c3ccc4[nH]c5c(c4c3)CCCC5)CC2)cc1,"0.398 µM [falling, single point]",–
O=C1OCC2=C1C(c1ccc(F)cc1)c1cc3c(cc1N2)OCCO3 (configuration not stated),"0.00316 µM [falling, full curve, poor fit]","2.82 µM [falling, partial curve, poor fit]"
CCOc1ccc(OCC)c(S(=O)(=O)NCCOC23CC4CC(CC(C4)C2)C3)c1,"12.6 µM [rising, single point]","17.8 µM [rising, partial curve]"
C=Cc1c(C)c2cc3[nH]c(cc4nc(cc5nc(cc1[nH]2)C(C)=C5CCC(=O)O)C(CCC(=O)O)=C4C)c(C)c3C=C,"7.08 µM [rising, partial curve] and 11.2 µM [falling, partial curve]","10 µM [falling, partial curve]"
O=C(NCc1cccc(F)c1)c1cccc(NC(=O)c2nsc3ccccc23)c1,"0.891 µM [rising, full curve, poor fit]","20 µM [rising, single point]"
CCc1ccc(Nc2nc(N)nc(CSc3nc4ccccc4s3)n2)cc1,"22.4 µM [falling, single point]","14.1 µM [falling, single point]"
N#CC1=C(N)N(c2ccccc2)C(c2cccc([N+](=O)[O-])c2)C1(C#N)C#N (configuration not stated),"0.0794 µM [rising, full curve, poor fit]",–
Nc1nc(Cl)nc2c1ncn2[C@@H]1O[C@@H](CO)[C@@H](O)[C@H]1O,"12.6 µM [rising, partial curve]","12.6 µM [rising, partial curve, poor fit]"
Cc1cccc(-n2ncc3c(NC4CCCC4)ncnc32)c1,"35.5 µM [falling, partial curve, poor fit]",–
O=C(COc1ccc2c(c1)OCO2)Nc1ccccc1C(F)(F)F,–,"1.12 µM [falling, single point]"
CCC(C(=O)Nc1cc(-c2nc3cccnc3s2)ccc1C)c1ccccc1 (configuration not stated),"22.4 µM [falling, partial curve]","31.6 µM [falling, partial curve]"
COc1ccc(N2CCN(Cc3nc4ccccc4n3C)CC2)cc1,"22.4 µM [rising, single point]","22.4 µM [rising, single point]"
COc1ccc(N=C/C=C2\C=C(c3ccccc3)OC(C)(C)O2)cc1,–,"17.8 µM [rising, partial curve]"
O=C(OCn1nnc2ccccc2c1=O)c1cn(-c2ccccc2)nc1-c1cccnc1,"6.31 µM [rising, partial curve]",–
Cc1cc(C)nc(SCC(=O)Nc2nc(-c3ccccc3)c(-c3ccccc3)o2)n1,–,"35.5 µM [rising, single point]"
O=c1c(N2CCN(c3cccc(C(F)(F)F)c3)CC2)csc2ccc(Cl)cc12,"35.5 µM [falling, single point]","35.5 µM [falling, single point]"
